Data as given in PubChem BioAssay AID686938 (Drosophila RNAi Screening Center, 2013)

Purpose: 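Knock-downs reducing store-operated calcium influx in Drosophila cells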 (primary screen)
Cells: Drosophila S2R+ cells
Knock-down reagent: long dsRNA against Drosophila genes, about 0.25 µg dsRNA per well, roughly 10,000 cells
Timing: 5 days of knock-down before the calcium assay
Treatment: thapsigargin (SERCA pump blocker) to empty calcium stores; entry signal taken 4 min after adding it
Measured: 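Per-well fluo-4 fluorescence in two replicates, unnormalised, measured in resting cells and 4 min after store depletion by the SERCA blocker thapsigargin; ratio of the two present in few wells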
Reading the numbers: calcium entry signal: higher = stronger calcium signal after store depletion; resting calcium signal: higher = higher resting calcium signal
Units: calcium entry signal in fluorescence units; resting calcium signal in fluorescence units
Active means: 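Hit if the duplicate-averaged plate z-score for entry over resting signal is under −3; wells with weak total dye signal (Fmax z < −2) or more than 5 off-targets removed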
Meaning of the calls: active = strongly reduced calcium entry; inactive = no strong reduction
The deposit covers about 23,000 reagents; below is an unselected part of those with a known target gene and a result. Over the whole deposit, 75 (0.33%) got an active call. 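Raw plate signals without normalisation; calls rest on plate z-scores that were not deposited; ratio present for only 364 wells.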 Entries without a mark were called inactive. No sequences are given here. Not given: the dose of the treatment.

For Gr5a (GeneID 44873) [DRSC18085], what was measured?
calcium entry signal, replicate 1: 2.81e7; calcium entry signal, replicate 2: 4.00e7; resting calcium signal, replicate 1: 1.39e7; resting calcium signal, replicate 2: 1.71e7

What did the screen give for hd (GeneID 40642) [DRSC12316]?
calcium entry signal, replicate 1: 3.18e7; calcium entry signal, replicate 2: 2.87e7; resting calcium signal, replicate 1: 1.70e7; resting calcium signal, replicate 2: 1.39e7

How did the screen score Est-P (GeneID 39393) [DRSC11163]?
calcium entry signal, replicate 1: 2.76e7; calcium entry signal, replicate 2: 3.60e7; resting calcium signal, replicate 1: 1.54e7; resting calcium signal, replicate 2: 1.57e7

Which result is listed for l(3)80Fj (GeneID 3355040) [DRSC20986]?
calcium entry signal, replicate 1: 3.12e7; calcium entry signal, replicate 2: 3.27e7; resting calcium signal, replicate 1: 1.57e7; resting calcium signal, replicate 2: 1.55e7

What is on record for l(3)80Fj (GeneID 3355040) [DRSC20989]?
calcium entry signal, replicate 1: 3.76e7; calcium entry signal, replicate 2: 3.77e7; resting calcium signal, replicate 1: 1.83e7; resting calcium signal, replicate 2: 1.58e7

What is on record for CG31793 (GeneID 326161) [DRSC02605]?
calcium entry signal, replicate 1: 3.67e7; calcium entry signal, replicate 2: 3.58e7; resting calcium signal, replicate 1: 1.72e7; resting calcium signal, replicate 2: 1.63e7

For or (GeneID 43943) [DRSC04329], what was measured?
calcium entry signal, replicate 1: 4.06e7; calcium entry signal, replicate 2: 4.71e7; resting calcium signal, replicate 1: 2.22e7; resting calcium signal, replicate 2: 2.30e7

In a second layout: entries from further up.
CG31793 (GeneID 326161) [DRSC02605]
- calcium entry signal, replicate 1: 3.67e7
- calcium entry signal, replicate 2: 3.58e7
- resting calcium signal, replicate 1: 1.72e7
- resting calcium signal, replicate 2: 1.63e7

or (GeneID 43943) [DRSC04329]
- calcium entry signal, replicate 1: 4.06e7
- calcium entry signal, replicate 2: 4.71e7
- resting calcium signal, replicate 1: 2.22e7
- resting calcium signal, replicate 2: 2.30e7

The results go on.
With Vps15 (GeneID 41096) [DRSC16553], how do the results read?
calcium entry signal, replicate 1: 4.41e7; calcium entry signal, replicate 2: 5.06e7; resting calcium signal, replicate 1: 2.14e7; resting calcium signal, replicate 2: 2.52e7

For TTLL3B (GeneID 33946) [DRSC02133], what does the deposit list?
calcium entry signal, replicate 1: 2.99e7; calcium entry signal, replicate 2: 2.93e7; resting calcium signal, replicate 1: 1.43e7; resting calcium signal, replicate 2: 1.39e7

What is on record for MED15 (GeneID 33223) [DRSC00267]?
calcium entry signal, replicate 1: 3.41e7; resting calcium signal, replicate 1: 1.92e7

What did the screen give for CG11357 (GeneID 38561) [DRSC08183]?
calcium entry signal, replicate 1: 2.42e7; calcium entry signal, replicate 2: 7.37e7; resting calcium signal, replicate 1: 1.15e7; resting calcium signal, replicate 2: 2.54e7

With Socs16D (GeneID 32760) [DRSC20087], what was measured?
calcium entry signal, replicate 1: 2.92e7; calcium entry signal, replicate 2: 3.79e7; resting calcium signal, replicate 1: 1.55e7; resting calcium signal, replicate 2: 1.69e7

Which result is listed for Socs16D (GeneID 32760) [DRSC23165]?
calcium entry signal, replicate 1: 3.62e7; calcium entry signal, replicate 2: 3.35e7; resting calcium signal, replicate 1: 1.92e7; resting calcium signal, replicate 2: 1.29e7

What is on record for Nse4 (GeneID 34434) [DRSC02239]?
calcium entry signal, replicate 1: 4.74e7; calcium entry signal, replicate 2: 5.86e7; resting calcium signal, replicate 1: 2.17e7; resting calcium signal, replicate 2: 2.43e7
